Results on six substances are retold here after doi:10.1101/2023.11.13.566796.

The chains behind the UniProt entries cited, without tags or fusion partners. Where a name states a change or a piece, a line headed by the entry shows the natural chain unless it says otherwise.
UniProt P49024: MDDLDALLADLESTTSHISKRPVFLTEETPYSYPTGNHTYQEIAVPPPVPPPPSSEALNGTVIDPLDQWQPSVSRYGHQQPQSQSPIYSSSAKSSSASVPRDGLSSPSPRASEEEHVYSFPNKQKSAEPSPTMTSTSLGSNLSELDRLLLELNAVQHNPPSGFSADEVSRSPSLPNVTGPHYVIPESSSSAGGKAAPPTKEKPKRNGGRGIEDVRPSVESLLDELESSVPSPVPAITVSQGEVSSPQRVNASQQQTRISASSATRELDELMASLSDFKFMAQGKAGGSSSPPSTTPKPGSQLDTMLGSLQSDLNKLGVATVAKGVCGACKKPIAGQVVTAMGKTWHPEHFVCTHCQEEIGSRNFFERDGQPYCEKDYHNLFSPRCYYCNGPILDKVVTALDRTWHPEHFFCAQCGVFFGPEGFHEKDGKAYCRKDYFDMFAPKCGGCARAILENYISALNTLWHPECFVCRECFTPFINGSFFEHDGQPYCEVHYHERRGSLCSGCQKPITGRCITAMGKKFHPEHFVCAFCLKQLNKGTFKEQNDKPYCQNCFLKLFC
UniProt Q00944: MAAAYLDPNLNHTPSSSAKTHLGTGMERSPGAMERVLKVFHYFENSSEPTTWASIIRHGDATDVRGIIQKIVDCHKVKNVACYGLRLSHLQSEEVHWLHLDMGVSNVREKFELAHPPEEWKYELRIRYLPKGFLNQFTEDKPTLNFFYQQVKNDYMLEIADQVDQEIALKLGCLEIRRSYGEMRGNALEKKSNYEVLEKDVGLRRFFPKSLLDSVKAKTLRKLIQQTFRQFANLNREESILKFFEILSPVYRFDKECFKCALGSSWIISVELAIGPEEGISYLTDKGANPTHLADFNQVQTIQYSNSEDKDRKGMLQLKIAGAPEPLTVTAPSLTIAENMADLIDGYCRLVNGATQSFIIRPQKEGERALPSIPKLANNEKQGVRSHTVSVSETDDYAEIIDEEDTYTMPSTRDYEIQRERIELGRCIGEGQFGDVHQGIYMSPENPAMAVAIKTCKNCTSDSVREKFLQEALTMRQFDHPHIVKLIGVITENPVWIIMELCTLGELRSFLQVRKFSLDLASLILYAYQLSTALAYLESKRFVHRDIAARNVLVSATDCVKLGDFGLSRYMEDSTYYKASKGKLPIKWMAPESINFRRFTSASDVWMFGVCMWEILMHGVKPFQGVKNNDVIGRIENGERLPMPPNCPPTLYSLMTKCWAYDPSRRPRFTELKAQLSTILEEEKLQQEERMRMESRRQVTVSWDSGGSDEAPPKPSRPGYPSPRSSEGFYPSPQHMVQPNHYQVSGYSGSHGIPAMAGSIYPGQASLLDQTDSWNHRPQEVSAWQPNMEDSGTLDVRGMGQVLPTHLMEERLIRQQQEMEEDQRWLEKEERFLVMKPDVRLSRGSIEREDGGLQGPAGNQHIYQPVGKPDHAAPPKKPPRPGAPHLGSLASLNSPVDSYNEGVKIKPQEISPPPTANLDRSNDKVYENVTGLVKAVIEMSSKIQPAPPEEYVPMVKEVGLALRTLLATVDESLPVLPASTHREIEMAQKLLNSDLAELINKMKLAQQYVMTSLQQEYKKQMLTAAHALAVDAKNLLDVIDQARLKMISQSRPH

Holding throughout (experiment): co-IP
One assay deals with T1, GFP-BNIP-2 (human) (UniProt Q12982).
T1 sequence: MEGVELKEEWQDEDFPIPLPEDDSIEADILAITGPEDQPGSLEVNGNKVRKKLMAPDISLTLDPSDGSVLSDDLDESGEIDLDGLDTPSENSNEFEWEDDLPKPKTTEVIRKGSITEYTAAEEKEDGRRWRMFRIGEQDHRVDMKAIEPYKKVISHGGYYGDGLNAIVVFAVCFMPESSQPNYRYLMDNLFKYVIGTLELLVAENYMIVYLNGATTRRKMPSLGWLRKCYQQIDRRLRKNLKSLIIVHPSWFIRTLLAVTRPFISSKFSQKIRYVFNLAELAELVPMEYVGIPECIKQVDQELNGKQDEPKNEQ

For another assay, the target named is T2, FLAG-BNIP-2 (human) (UniProt Q12982).
T2 sequence: T1 sequence

The target in a further assay is T3, GFP-BNIP-2-cBCH (human) (UniProt Q12982).
T3 sequence: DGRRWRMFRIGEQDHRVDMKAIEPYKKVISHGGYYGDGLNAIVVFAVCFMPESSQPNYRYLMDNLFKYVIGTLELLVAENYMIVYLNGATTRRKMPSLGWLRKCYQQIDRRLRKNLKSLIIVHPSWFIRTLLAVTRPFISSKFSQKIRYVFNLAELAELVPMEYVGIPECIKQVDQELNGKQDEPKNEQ

In assay [1] the target is T4, HA-tagged full-length BNIP-2 (human) (UniProt Q12982).
T4 sequence: T1 sequence

The target of assay [2] is T5, GFP-BNIP-2-N terminal (human) (UniProt Q12982).
T5 sequence: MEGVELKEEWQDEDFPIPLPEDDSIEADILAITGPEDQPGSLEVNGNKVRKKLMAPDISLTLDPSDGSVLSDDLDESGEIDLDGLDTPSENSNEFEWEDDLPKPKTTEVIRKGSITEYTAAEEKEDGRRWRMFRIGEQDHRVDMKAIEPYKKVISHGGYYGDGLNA

In a further assay the target is GFP-paxillin (UniProt P49024).

No constants are given. Whether binding was seen depends on the method and setting. Binding seen in cells or lysates may run through a third protein. Some binding calls cover weakened binding; strength is not graded here. For some of these results: Where a sequence is shown, tags or fusion partners need not be part of it.

In the case of “mApple-FAK Y397F (from UniProt Q00944 1-1053)”, the binding entry with GFP-BNIP-2 (human) is given as “binds weakly”. As to GFP-FAK (from UniProt Q00944 1-1053), the binding entry in the assay with FLAG-BNIP-2 (human) was “binds”. With FLAG-FAK (from UniProt Q00944 1-1053), the binding entry with GFP-BNIP-2-cBCH (human) was “binds”; in the assay with GFP-BNIP-2 (human), “binds”; in assay [1], “binds”; in assay [2] it was “no binding”; with GFP-paxillin, “binds”. For the substance “mApple-FAK full-length (from UniProt Q00944 1-1053)”, the binding entry in the assay with GFP-BNIP-2 (human) is on record as “binds”.

In the case of “mApple-FAK Y397D (from UniProt Q00944 1-1053)”, the binding entry with GFP-BNIP-2 (human) is on record as “binds”. On to “mApple-paxillin (from UniProt P49024 1-559)”, for which, in the assay with FLAG-BNIP-2 (human), the binding result is “binds”.
